Results deposited as PubChem BioAssay AID602196 (INSERM, 2012)
Aim: 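Genes whose knock-down alters cisplatin killing of lung cancer cells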. Cells: human A549 lung cancer cells. Knock-down reagent: siRNA pair against human genes. Time to read-out: 48 h transfection before cisplatin; time from cisplatin to read-out not stated. Challenge: cisplatin at a dose killing half of control-siRNA cells; exact dose and duration not given. Measured: 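Shift in cisplatin death relative to control siRNA, from -50 (all cells die) to +50 (no cells die); siRNAs harmful on their own scored 0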. Scale: two-siRNA summed score (-2 to +2): higher = both siRNAs protect from cisplatin killing; -2 means both sensitise; mean protection from cisplatin (shift in death) and protection from cisplatin (shift in death), siRNA C and protection from cisplatin (shift in death), siRNA D: higher = protection from cisplatin killing. Hit rule: 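siRNAs harmful alone (LDH or WST-1) get 0; others get +1 for less and -1 for more cisplatin killing; genes are active when the two siRNAs give the same sign, summing to ±2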. Meaning of the calls: active = both siRNAs shift cisplatin killing the same way; inactive = no consistent shift, or siRNA harmful alone.
The deposit covers about 23,000 reagents; this is a part drawn at random. 455 of all reagents (2%) count as active. 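Active includes both protection and sensitisation; some change values fall well beyond the stated -50 to +50 range.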 Unmarked entries are inactive. Not stated in the record: the amount of reagent.

| Gene | two-siRNA summed score (-2 to +2) | mean protection from cisplatin (shift in death) (%) | protection from cisplatin (shift in death), siRNA C (%) | protection from cisplatin (shift in death), siRNA D (%) |
| --- | --- | --- | --- | --- |
| SRD5A3 (steroid 5 alpha-reductase 3) | 0 | 0.4 | -3.4 | 4.3 |
| UNQ9370 (retired record) | 0 | -12.1 | -9.7 | -14.6 |
| LOC388638 | 0 | 4.5 | 5.4 | 3.6 |
| CA4 (carbonic anhydrase 4) | 0 | 4.7 | 6.1 | 3.2 |
| RAMP1 (receptor activity modifying protein 1) | -1 | -17.8 | -32.1 | -3.6 |
| RHOBTB2 (Rho related BTB domain containing 2) | 2 (active) | 19.8 | 20.5 | 19 |
| ROBO2 (roundabout guidance receptor 2) | 0 | 2.7 | 10.6 | -5.2 |
| CLEC12A-AS1 (CLEC12A antisense RNA 1) | 0 | 9.7 | 0.8 | 18.6 |
| XPNPEP3 (X-prolyl aminopeptidase 3) | -1 | -17.6 | -5.4 | -29.9 |
| KCNIP2 (potassium voltage-gated channel interacting protein 2) | 0 | 14.4 | 8.1 | 20.6 |
| GARIN6 (golgi associated RAB2 interactor family member 6) | 0 | 1 | 1 | 1.1 |
| RPN1 (ribophorin I) | 1 | 10.6 | 19 | 2.2 |
| PPP1R12C (protein phosphatase 1 regulatory subunit 12C) | 0 | 8 | 4.9 | 11.1 |
| PATJ (PATJ crumbs cell polarity complex component) | -1 | -4 | 10.7 | -18.6 |
| AKR7A2 (aldo-keto reductase family 7 member A2) | 0 | -4 | 3.1 | -11.1 |
| KIR3DL1 | 0 | 3.5 | -6.4 | 13.5 |
| SELPLG (selectin P ligand) | -1 | 1.8 | 21.8 | -18.1 |
| PBXIP1 (PBX homeobox interacting protein 1) | 2 (active) | 14.9 | 21.4 | 8.4 |
| CPZ (carboxypeptidase Z) | -1 | -8.6 | 3.1 | -20.4 |
| LRRC75B (leucine rich repeat containing 75B) | 0 | 2.7 | 1.9 | 3.6 |
| LOC400937 | 0 | 15 | 21 | 9.1 |
| LOC400992 | 1 | 15.3 | 20.4 | 10.2 |
| KDM3B (lysine demethylase 3B) | 1 | 15.5 | 16.9 | 14.1 |

Just “mean protection from cisplatin (shift in death) (%)” (3 entries from above):
AKR7A2 (aldo-keto reductase family 7 member A2)	-4
KIR3DL1	3.5
SELPLG (selectin P ligand)	1.8
